103 sequences from PubChem BioAssay AID1347423 (Functional Genomics Laboratory (NCATS/FGL), 2020) can be followed below.

Among all 52,000 sequences or so, about 210 (0.4%) were called active.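 Rule for the calls: active = gene whose silencing raises cell survival under the drug, median off-target-corrected z-score across its silencing RNAs 2 or more; inactive = the rest.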 The list shows a part of the results.

The experiment can be described thus: Resistance to Poly (ADP-Ribose) Polymerase inhibitor: Gene Identification via Genome-wide siRNA Screen. Particulars: mouse BRCA2 R2336H ES cells, olaparib, CellTiter-Glo viability; hits give high values. In outline: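 Mouse BRCA2 R2336H ES cells were reverse-transfected with siRNA (20 nM final), treated at 48 h with 500 nM olaparib, and read by CellTiter-Glo after 72 h. Scores: MAD-based z per siRNA, median per gene, seed off-target correction.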
For orientation: In ATP-based viability assays light output follows the ATP content of the culture.
Consider CCAGAGGUAUUGAGAGUAATT against Apob48r, for which the z-score was inactive: -3.18. For the sequence GCAAUUCCACGUAUGGAUUTT against Olfr652, the z-score was inactive: 0.293. Regarding GGACUGACACUAUAAACUCTT against Ndufb2, the z-score is inactive: -0.27. Regarding CCGUGUAAGGUGUGGAGUGTT against BC025519, the z-score was inactive: -0.875. On to GGCUGGAGAAUUCUAGAAUTT against Lao1, for which the z-score is inactive: -0.8. Under GGACAGAUUCUCUGUGAAUTT against Cryab stands inactive: -0.828.

Regarding “CCAUUUUAUGGGAGUAUUATT against F730047E07Rik”, the z-score was inactive: -1.79.

As for GGCAAAUUUUUGGAGAUGUTT against Hspa4, the z-score was inactive: 1.43. Regarding GGACUUGUAUUAGCAGGAATT against Pparg, the z-score was inactive: -2.37. Regarding CCCAAUAUUCAAGGAUAUATT against Gprk2l, the z-score is inactive: -1.67. For CCACUACGAAAUCAUUUCCTT against Car9, the z-score is inactive: 1.01.

For GGCAAUGAUGAUCUCCUCUTT against Htra3, the z-score was inactive: 0.678. In the case of GCUAAGACUGUACUGUGACTT against BC052360, the z-score was inactive: 0.534. Consider GGCUAUGAAGCAGUACAAGTT against Refbp2, for which the z-score is inactive: -0.813.

On to AUUGCAUUGUAUUCACUUGTT against BC050099, for which the z-score is inactive: 0.475.

Consider GUGGGAUUCCAGUAGAAAUTT against Olfr1116, for which the z-score was inactive: 0.235.

Consider “CCUUUGUAGUGCUAGUUAUTT against 5930418K15Rik”, for which the z-score is inactive: 0.291. Consider “CCAUCGGGAUUGACUAUGGTT against C330021A05Rik”, for which the z-score is inactive: 0.426. As to GCUCAGAAUAUCACAUCAATT against Ppm1b, the z-score was inactive: 0.315. Turning to GACCCGCUGCUGCUCAAAUTT against Cdc42ep5, the z-score was inactive: -0.52.

With “CCUAUGGUGCUCUUAUAAATT against B930011P16Rik”, the z-score was inactive: 0.0288. For the sequence CGUCAACUCCGACAUCUACTT against Tcerg1, the z-score is inactive: 1.48. As for GGAAAAGGUUUUCUACAACTT against Ephx1, the z-score is inactive: -0.2.

As to GCCUUUUCUACCUACACAATT against Paqr4, the z-score was inactive: -0.282. The result for “CCUAGAGGAUUCAGAUCAATT against 0710005I19Rik” reads inactive: 2.24; that for “GGCUCUUGAAAAAAACCCATT against 2700082D03Rik”, inactive: -0.377; that for “GGAUUAAUGUUUCCUGACUTT against 2410066E13Rik”, inactive: 1.52. Take GCCGCCUAAUGUUGACUUUTT against Usp37: the z-score was inactive: -1.72. Under GGAUUCUAUGAGAAAGUUCTT against Abca7 stands inactive: -0.0242.

Take GGUGAUACUAACAGCGGAGTT against Sort1: the z-score is inactive: 0.924. CUCAAAAUCUGGUGAUAAATT against Adam34: the z-score was inactive: -0.266. Regarding GGUUCAGAUCCCUAAAAUATT against Eif2c4, the z-score is inactive: -0.977. GGAUAAACUUCCAUCUUUCTT against Car14: the z-score was inactive: 1.27. As for CCGUAAGGAUAUUCUCUAGTT against Pelo, the z-score was inactive: -2.01. Regarding “GGUGCUGUUGAAUUGUGGGTT against 2610312E17Rik”, the z-score is inactive: 0.398. For the sequence CGGCUACUAUGUGAAACUGTT against Jph1, the z-score was inactive: -1.91. Turning to “CGGACGGCAGAAGAAAAAGTT against 9530033F24Rik”, the z-score was inactive: -1.27. As to “CGAGAAAAGACUAUGAUCCTT against 2410017P07Rik”, the z-score is inactive: 0.263. GGUGAUAAAGUCAUUCCACTT against Adh1: the z-score was inactive: -1.76.

For GGGUAUGGAUUCCUGUCAGTT against Pcca, the z-score was inactive: -1.72. The result for CCCGGGAUAGAGAGGAAAUTT against Nbl1 reads inactive: -0.401; that for GGAGUUCUUUACAUUGGACTT against Olfr554, inactive: -0.0131. With CCCAAGUGGCAUCUAUUCATT against Capn3, the z-score was inactive: -1.06.

As for “GGUUCUAAAUCAGAAGUGCTT against 1110034B05Rik”, the z-score was inactive: -0.496.

Take “CCAAAGGUGUGUGAUACUGTT against 2010107G23Rik”: the z-score is inactive: 0.0261. For the sequence GGAAAAAUCAGUUUCGUCUTT against Dgkq, the z-score was inactive: 0.778. CGACUCUGAAGCUAAACAATT against Npr3: the z-score is inactive: -0.00231. Consider GGCUAAGUACUCAGCAUAGTT against Ctf2, for which the z-score is inactive: -2. Take “CCCACAUCGAUGGUUAGCUTT against 4930534B04Rik”: the z-score was inactive: -0.199. As to “GGAAGUGGGUAGCAACCAATT against 4833436C18Rik”, the z-score was inactive: -0.614.

As for GCACUUACUCAUUAAUCACTT against Rnf20, the z-score is inactive: 0.939. As to GGACACCAACUUUCUGCCCTT against Wisp2, the z-score was inactive: -0.903. Turning to GGUCAGACCUGUUGAUAGATT against Nr3c1, the z-score was inactive: -0.254. On to GCUCUAAACAUGAUUCAAGTT against Akap9, for which the z-score is inactive: 1.92. Consider GCUCACCUGAGUCAAUGAUTT against Nr5a2, for which the z-score was inactive: -0.711. For the sequence GGUGAACCUCAAUAAUAUCTT against Tmod4, the z-score is inactive: -0.00862. Consider GGGCCUAAGAAGCAUUACUTT against Np15, for which the z-score is inactive: -0.758. For the sequence GGUAGCAUUAUUUGUCCUATT against Pcdh15, the z-score was inactive: 0.935.

Take GGAGAAACGCAAGAAACGUTT against U2af1-rs1: the z-score is inactive: -0.63. CCAUUGUGCAUUAAACAUUTT against Mrpl35: the z-score was inactive: 0.776. Under “GGAACUGGCAAGUUAGUUUTT against 3010003L21Rik” stands inactive: -0.216. For the sequence GGAGUUACCUUUCGAUAGGTT against Sec10l1, the z-score was inactive: -0.437. For the sequence GCUCCUCUCCAAGGUCAUUTT against Olfr96, the z-score is inactive: -0.114.

On to GGACAGAACCAUCUGAAGGTT against Pycs, for which the z-score was inactive: -2.77.

As for GGAAGAUGUGACCAAUUCUTT against Gpr73, the z-score is inactive: 0.368. GGUACACUAUACUUACAUATT against Dcl1: the z-score was inactive: -0.562. The result for “GCUGUCGAGUAGAUGUCUUTT against F830014G06Rik” reads inactive: -2.23. As to “GGGUGUCAAUCUAAAACAUTT against 1110014P06Rik”, the z-score was inactive: 0.933. In the case of GGUCUCAUUUCAAAUGGUUTT against Rnf127, the z-score is inactive: 0.0923. Take GGACAUUGGAUUCUUCAUCTT against Grap2: the z-score was inactive: 0.469. For the sequence GGCGGAUCAAACUCGGAUUTT against Pou3f2, the z-score is inactive: 0.0964. Consider “CGAUAUUUGGUGUGAAAUGTT against 1110020A09Rik”, for which the z-score was inactive: -1.68.

As to GGUGAUGCAGCAGAUCAUUTT against Nfyc, the z-score is inactive: -1.82. Under GGAUCCAAAGAGUAUUGGATT against Olfr521 stands inactive: -0.988; under “GCUUUCUUUUGCACUUGAATT against 1500010J02Rik”, inactive: 3.39. On to GGACCAGAAAAUUCACUUUTT against Gdap2, for which the z-score was inactive: -1.39. For the sequence GCCUAAUUAUAGUCACUCUTT against Olfr1089, the z-score was inactive: 0.424. On to GGUCUGUGGAUUUAAACUUTT against Sestd1, for which the z-score is inactive: 0.415. GGCAAAAUGCAUAGAGAUATT against Map4k5: the z-score is inactive: 0.78. As to GGGUCCCGAUCCAUAAUUGTT against Itpka, the z-score was inactive: 0.513. Consider GGCUGUGGAAUGACACCAATT against Sars2, for which the z-score was inactive: -0.232. Consider GGAAAUCAGCAAAGUAAAATT against Golga1, for which the z-score is inactive: -1.39. On to GGAAUUGGGUUCUACAUGCTT against MGC27770, for which the z-score is inactive: -0.687. Turning to GGUUUGCCACCUGUGUGUUTT against Rasgef1b, the z-score is inactive: -0.862.

For the sequence GCGUGAGAGAUACCGCCAUTT against Gnai2, the z-score is inactive: -0.0578. In the case of GCCUAUCGAGGAGACACAUTT against Edil3, the z-score was inactive: -1.08. In the case of GGUGGCCUUUCUUUGUUUATT against BC049762, the z-score was inactive: 0.805.

Turning to GGACCAUCUCUUAUGUCCATT against Olfr54, the z-score is inactive: 0.644. Turning to GGAGAAUGUACAAAGGCUUTT against Slc7a13, the z-score was inactive: -0.894.

Take CCGUAGUUAUGAUACCAAUTT against Cyp3a25: the z-score is inactive: 0.166. Take CCCUGUACCUAGCUCAAGATT against Ecel1: the z-score is inactive: 0.957. On to GCAAGAUGGUAUCAGCAGATT against BC031781, for which the z-score was inactive: -1.16. With GGGAUAAACCUUCGCCAUATT against Fkrp, the z-score was inactive: 0.202. With “GCUGAUGUCUCAACCUAGATT against 9430065N20Rik”, the z-score was inactive: 1.04. Consider GGCGAUUCAAGGAGUUCCUTT against Mcm5, for which the z-score was inactive: -0.256. For the sequence GGGAACCAAACUGUCAUCUTT against MOR135-11, the z-score is inactive: 0.3. For GGCAUGGAAUAUGAUGUUATT against Nalp9b, the z-score is inactive: -2.18. Turning to GGUGAUGGAAAUAAACUACTT against BC003479, the z-score was inactive: -0.039. In the case of “GGUCACAGAAUCGGUUUCATT against 0610039D01Rik”, the z-score was inactive: -1.9. Regarding CGAUGAUACAGUUUAUCUCTT against Pon2, the z-score is inactive: -0.303. As for “CCUAGAGUCUCAGGACUGUTT against MGI:1923902”, the z-score was inactive: -0.361. Consider GGAUGAGGAUUUUGAGAACTT against Arhgef1, for which the z-score is inactive: 0.573.

Turning to GGAUCACUUGAUUGAUCCUTT against Slc15a3, the z-score is inactive: 0.391.
